From PubChem BioAssay AID1508600 (Functional Genomics Laboratory (NCATS/FGL), 2020) come the findings set out here.

About 3,700 (7%) of roughly 53,000 sequences were called active.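 How the source made its calls: active means gene knockdowns whose robust z-score for IL-1 alpha signal is at least 2 or at most -2, so actives lie on both sides; inactive means the rest.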 The list shows a part of the results.

This assay can be described thus: Components of the Cytosolic LPS Sensing Pathway: Gene Identification via Genome-wide siRNA Screen.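 Further: robust z of the log signal after scaling to non-targeting control siRNA wells of the plate.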 Conditions: RAW264.7 macrophages, IL-1a HTRF, actives lie on both sides, screened at 100 nM (by protocol), cells primed 5 h with Pam3CSK4 first. Summed up:
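Knockdown: 100 nM siRNA, 48h, RAW264.7. Stimulation: Pam3CSK4 5 h, then LipidA via TransIT-TKO 24 h. Output: supernatant IL-1a HTRF, negative-control-normalized, log robust z-score; viability by CellTiter-Glo.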
In general terms: Time-resolved FRET reads energy transfer from a long-lived donor to a nearby acceptor.
With GUCAUGCAGCUCCUUUGGUTT against Olfr635, the z-score is inactive: 0.0979.
In the case of GGCCAGACAUGUUGAAGAATT against Ssna1 it was active: -2.42; in that of GCCUUCCUAAAGGAUUACUTT against Ndst1, inactive: 1.34.
Take CGAAGGAGUCAAAACUGGGTT against Klk1b8: the z-score was inactive: -1.79.
GGUUUUGACUCUGUGAUAUTT against Sh3kbp1: the z-score was inactive: -0.505.
As to GGAAGUCACGCUGAACAAATT against Cenps, the z-score was inactive: 0.754.
As to GAUGGUCCAGAGCGACUUCTT against Pou3f3, the z-score is active: 2.14.
Then GCCACUCAACAUUAAAUCCTT against Tbc1d8, with inactive: 0.0844; and GGAGCAAAGUCUAAUAGCATT against Ercc1, with inactive: 1.03.
GGAAAUUCUAGUCAAAUGCTT against Sp7: the z-score is inactive: -0.188.
For the sequence CCUCAAAGUGUUAGGAUGATT against Slc35e4, the z-score is inactive: 1.56.
In the case of GCAGGCUAACCACAUUUGCTT against Zic4, the z-score is inactive: 1.25.
Regarding GGGACACUACCCUGAUGAUTT against Vmn1r205, the z-score was active: -2.05.
Regarding GGACAUGACAUUCCUAUCCTT against Trav7d-6, the z-score was inactive: -0.759.
In the case of GCUACAGCCGAGAGAAAUGTT against Tspan14 it was inactive: 0.0481.
GGUAGAAAGAUUGAGAGUUTT against Gm11961: the z-score was inactive: 0.765.
In the case of GGAGUGUUUGAGAAAUACCTT against Pnpla7, the z-score was active: 3.32.
For the sequence GGUUGGAUUGGGAUUUGAATT against Vdac3, the z-score was inactive: -1.24.
Then CCUACGAGUUUUGCAUUUATT against Slc25a51, with active: -2.46.
Consider GGCCACUUGAGAACAUUCGTT against Nop10, for which the z-score is inactive: 0.331.
With GCUCCAGAUGGGUAGAUCUTT against Ptrh1, the z-score was inactive: -1.8.
In the case of GCGACACGUCUCCAGAUGATT against Bloc1s6 it was inactive: -0.701.
With CCUUAUGGGUAGAAAACCUTT against Mtmr2, the z-score is inactive: -0.561.
Take GCGGUUUGUCUUCAACAAGTT against Il1b: the z-score was inactive: 0.22.
On to CCUACCUUCGAAUCUCAGUTT against Dusp15, for which the z-score is inactive: -0.964.
On to CCUCUAGAUAGUGUUAGAGTT against Smarcd1, for which the z-score is active: -2.19.
As for CCGUCCUUCUGAGAAAUAATT against Tfip11, the z-score was inactive: 0.108.
With GCUCAGUUGUUUUUCAUUCTT against Olfr782, the z-score was inactive: -0.556.
As to GGCAACUUUGAAGUCUUGATT against Dntt, the z-score was inactive: -0.488.
Then GCCUAUACAUCGGACAAUCTT against Apcs, with inactive: 0.623; and GGAAUGUUCUGUCGCUAUGTT against Nrp1, with inactive: 0.966.
As to GCUACUCUACUGGUUCUUATT against Pltp, the z-score is inactive: -0.805.
On to GGAAAGGCUCGGCUUUUGATT against Ormdl2, for which the z-score is inactive: -0.0151.
GCAGGAGACGCAAUAGAAATT against Dand5: the z-score is inactive: 1.26.
In the case of GCCUAAGGGAGACUCUUUGTT against Ano7 it was active: -2.02; in that of GAUGCUCAUCAAUAUCGUATT against Olfr1109, inactive: -0.651; in that of GCCUUUCGUGGUGUCAGCUTT against Chst2, inactive: 0.304.
On to GGAAGCACAUCAAUAGGGCTT against Olfr828, for which the z-score is inactive: 0.567.
Then GGAAGUCACCAUCAACCAGTT against Krt4, with inactive: 0.168.
On to GUCCUGCACUUUUUGGCUCTT against Olfr1223, for which the z-score is inactive: 1.12.
Then GGAACUUUCUGAAGAAACATT against Oasl2, with inactive: -1.46; and GGGAAGAAAAGAAGUAUGUTT against Atp10a, with inactive: 0.0464; and GGCAAAUUAGCUAGUAUCATT against Rai2, with active: -2.2.
As to GGCGGUUUUAGUGAAUAACTT against Golm1, the z-score is active: 2.17.
For GGAACACUGGAACUAUUUUTT against Sipa1l1, the z-score was inactive: 0.516.
Take CGGCUGAUGCUUGACCUAATT against Plppr2: the z-score was inactive: -1.33.
In the case of GGAAGAGGCUGAAGUAAAATT against Brd8, the z-score is inactive: 0.684.
As to GGUAAUCUUUCAGUUACCCTT against Six4, the z-score was inactive: -0.162.
In the case of GGUGAUGUGGAAGCAUUUGTT against Adrm1 it was inactive: 0.254; in that of CCUUCUCUGCCUCGAUGAUTT against Cox14, inactive: -1.23.
In the case of GGGUUUGCAUCACUUUGUUTT against Olfr1245, the z-score was inactive: -0.961.
As for GGAUGAUUUCCAGAGAGUATT against Rdh5, the z-score was inactive: -0.398.
As to CCAUUGGUACUCUUUCCAATT against Megf10, the z-score was inactive: 0.171.
Then GGAAUUUCGGGACAAAAUUTT against Olfr654, with inactive: -0.171; and GGAAGUGAUUCUGCUAUGUTT against Cenpn, with inactive: -1.69.
Turning to GGAAGAAUCGCUGCUACCGTT against Mrpl20, the z-score is inactive: 1.06.
In the case of GGAAACGAUGCAAGAACCCTT against Zp3r it was inactive: 0.625; in that of “GGAAAGAAAAACGUAGGCGTT against 4933402J07Rik”, inactive: -1.16.
For the sequence GGCCUGGCAUGAACAUAAATT against Atf5, the z-score is inactive: -1.36.
For the sequence GGAAAGCAGACUCAAUGAGTT against Fibin, the z-score was inactive: 0.0656.
On to CGUUCAAGCUCAAAGAGCATT against Slirp, for which the z-score was inactive: 0.511.
On to GGUGGAAUGAAAUAUGAAGTT against Ptp4a1, for which the z-score is inactive: 0.741.
Then AGAGAGAAAUGGUAGCGUATT against Oog2, with inactive: -1.18; and GGAACACAGGUUAAGAAGGTT against Eif2b5, with inactive: -0.21.
With GCUAACUGAUGCUAAAGGATT against Dnajc15, the z-score was inactive: 0.825.
Take GCUACUACCUGGCAGUUAGTT against Cyp4b1: the z-score was inactive: -0.00582.
Then GGAACAAGGAUGCUCAUACTT against Ankmy1, with inactive: -1.38.
With “GGUAUGAGAUUACCUUCACTT against 1700037H04Rik”, the z-score is inactive: -1.16.
For GCUAUACUAUUGAAGAAAGTT against Tdp2, the z-score was inactive: -0.431.
As for GGAAACAAGAAGAACGAUGTT against Camk2a, the z-score was inactive: 1.47.
Take GGCCAAAGGAUUUCUUAUCTT against Ndufa6: the z-score was inactive: 0.28.
In the case of GGAUGUUUCUAACUCCUUUTT against N4bp3, the z-score is inactive: 1.46.
Then CCUUGGGACAAGCAUAUAUTT against Psg25, with inactive: 0.901.
On to CCAUCUGAUUAAUGGCUUCTT against Tm7sf2, for which the z-score was inactive: 1.03.
For the sequence “GGCUGUCUUAUUAAAGCUATT against A730013G03Rik”, the z-score was active: -2.19.
In the case of GGUGAUCAUGCUAACCUUUTT against Pcolce, the z-score was inactive: 0.436.
Regarding GGCAGAAGUCAUCAACCAATT against Bcl2l12, the z-score is inactive: -0.0414.
For the sequence GGCGUAUUUGUCAUUUCUUTT against Dis3l, the z-score was inactive: 0.013.
Take CGAUGAAUCAGUGAGGCUGTT against Wdr18: the z-score was inactive: 0.139.
Consider GGUCUUAGAAGAUUUUUCUTT against Adam21, for which the z-score was inactive: 1.1.
For GCUUGGAUUGGUAACCUGUTT against Olfr167, the z-score was inactive: 0.939.
Regarding CCUGAAGAAAGAAUCCCUATT against Nobox, the z-score was inactive: 0.241.
For GGCCUGGAGGAGCUAUAUUTT against Nrl, the z-score was inactive: 1.8.
Take GGCAUCCAGACAAGUGAUGTT against Zer1: the z-score is inactive: 0.699.
Regarding GCUGUUGUUUGCUAGCAAATT against Lipa, the z-score was inactive: 0.973.
In the case of CCACAAAUACAAAUCUACCTT against Bloc1s3 it was inactive: 0.989; in that of GGAAGAACAACGAAGAAACTT against Mtarc2, inactive: -0.369.
In the case of CCUUCAGAAAGUUGUUGAATT against Commd5, the z-score is inactive: 0.635.
In the case of GGGAGAAGUAAGUGUUAUCTT against Npy2r, the z-score was active: 3.86.
For the sequence UAAAUACUUACCAGCUGGATT against Olfr1306, the z-score is inactive: 1.06.
Turning to GCAAAAUCUCAAAUUGCUCTT against Mdh1, the z-score was inactive: 1.91.
On to GGAAAGAAGAACCAAGCUCTT against Med6, for which the z-score was inactive: -1.01.
For the sequence GGUUCCAGAUGAGAUGAUATT against Ubr7, the z-score is inactive: -1.8.
With GGUACGCCCUCAUAUGUCATT against Lnpk, the z-score was inactive: 0.729.
Then GGUGCCAUUGAUUCUGUAGTT against Smim10l2a, with inactive: -0.807; and GCCAACUUUGGACCAUUAUTT against Otulin, with inactive: 0.0891.
Turning to GCGAUUAAUGGCAUAGUUUTT against Sar1a, the z-score was inactive: -0.773.
In the case of GGAUUAGACUGUCUUCAGCTT against Rnf144a it was inactive: -0.496.
With GGAGAGGAAUCAAGUGGUGTT against Lig1, the z-score is inactive: -1.04.
As for GCCUCAAGUAAAGUGGCUGTT against Furin, the z-score is inactive: 0.487.
As for CCGUUCACUAAUAAAAGGUTT against BC052040, the z-score is inactive: 0.58.
Consider GCCUGUGUAUUACUUUUUUTT against Sned1, for which the z-score was inactive: -0.786.
On to GGAUUGGCAAGCAGCUAACTT against Dnase2a, for which the z-score was active: -2.08.
Then GCAAUAAUUUCUCACCUAGTT against Tcf3, with inactive: -1.48; and CCGGUAAUGAGUUCAAGUGTT against Arsa, with inactive: 1.12; and CGAACUAGCAAUGUUUACUTT against Ptpn13, with inactive: 0.982.
As for GCGAGGUAUUUUCUUAGUATT against Yes1, the z-score was inactive: -0.00878.
